The shares of active, inactive and inconclusive entries below differ from those in the screen. A potency beside an inconclusive call is a rough fit, not a confirmed value. Active and inactive are the calls of the source. The calls were made as follows: active = hit-call score of the fitted dose curve at least 0.9, where 1 is the maximum; inconclusive = response in the unintended direction; inactive = score below 0.9.
Biological target: Tyrosine-protein phosphatase non-receptor type 12 (Homo sapiens) (UniProt Q05209)
Assay: NVS_ENZ_hPTPN12: NovaScreen (NVS) Enzymatic Assay for human Protein Tyrosine Phosphatase Non-receptor Type 12 (PTPN12) (AID 2283204)
Summary of the method: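 Single-concentration duplicates (25 uM) preceded singleton concentration-response up to 50 uM for chemicals passing threshold. Cell-free recombinant PTPN12 activity was read 1.33 h after dosing via fluorescence after mobility-shift separation; loss of signal versus DMSO.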

Sequences of proteins named here, by UniProt entry; tags and fusion partners are left off. A change or cut given only in a name is not applied to a line headed by its entry.
UniProt Q05209: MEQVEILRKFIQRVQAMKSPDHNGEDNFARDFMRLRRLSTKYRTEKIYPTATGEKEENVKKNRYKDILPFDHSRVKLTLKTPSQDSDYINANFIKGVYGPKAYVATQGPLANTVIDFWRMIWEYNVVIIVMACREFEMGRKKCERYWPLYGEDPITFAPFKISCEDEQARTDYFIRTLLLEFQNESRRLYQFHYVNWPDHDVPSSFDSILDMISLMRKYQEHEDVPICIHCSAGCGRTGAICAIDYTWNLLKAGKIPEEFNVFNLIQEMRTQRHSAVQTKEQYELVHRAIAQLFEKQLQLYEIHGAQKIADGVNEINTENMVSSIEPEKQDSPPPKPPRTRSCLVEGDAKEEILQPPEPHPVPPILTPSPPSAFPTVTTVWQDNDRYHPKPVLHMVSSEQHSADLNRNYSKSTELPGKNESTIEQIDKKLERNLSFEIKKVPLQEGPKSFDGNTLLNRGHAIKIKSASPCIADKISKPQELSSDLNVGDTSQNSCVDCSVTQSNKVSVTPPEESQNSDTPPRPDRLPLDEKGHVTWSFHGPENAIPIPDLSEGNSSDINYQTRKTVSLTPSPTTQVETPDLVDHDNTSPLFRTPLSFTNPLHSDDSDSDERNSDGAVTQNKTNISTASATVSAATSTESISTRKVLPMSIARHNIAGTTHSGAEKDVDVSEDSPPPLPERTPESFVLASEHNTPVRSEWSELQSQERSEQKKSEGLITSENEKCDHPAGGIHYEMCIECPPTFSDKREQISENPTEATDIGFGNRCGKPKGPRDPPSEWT
UniProt Q12923: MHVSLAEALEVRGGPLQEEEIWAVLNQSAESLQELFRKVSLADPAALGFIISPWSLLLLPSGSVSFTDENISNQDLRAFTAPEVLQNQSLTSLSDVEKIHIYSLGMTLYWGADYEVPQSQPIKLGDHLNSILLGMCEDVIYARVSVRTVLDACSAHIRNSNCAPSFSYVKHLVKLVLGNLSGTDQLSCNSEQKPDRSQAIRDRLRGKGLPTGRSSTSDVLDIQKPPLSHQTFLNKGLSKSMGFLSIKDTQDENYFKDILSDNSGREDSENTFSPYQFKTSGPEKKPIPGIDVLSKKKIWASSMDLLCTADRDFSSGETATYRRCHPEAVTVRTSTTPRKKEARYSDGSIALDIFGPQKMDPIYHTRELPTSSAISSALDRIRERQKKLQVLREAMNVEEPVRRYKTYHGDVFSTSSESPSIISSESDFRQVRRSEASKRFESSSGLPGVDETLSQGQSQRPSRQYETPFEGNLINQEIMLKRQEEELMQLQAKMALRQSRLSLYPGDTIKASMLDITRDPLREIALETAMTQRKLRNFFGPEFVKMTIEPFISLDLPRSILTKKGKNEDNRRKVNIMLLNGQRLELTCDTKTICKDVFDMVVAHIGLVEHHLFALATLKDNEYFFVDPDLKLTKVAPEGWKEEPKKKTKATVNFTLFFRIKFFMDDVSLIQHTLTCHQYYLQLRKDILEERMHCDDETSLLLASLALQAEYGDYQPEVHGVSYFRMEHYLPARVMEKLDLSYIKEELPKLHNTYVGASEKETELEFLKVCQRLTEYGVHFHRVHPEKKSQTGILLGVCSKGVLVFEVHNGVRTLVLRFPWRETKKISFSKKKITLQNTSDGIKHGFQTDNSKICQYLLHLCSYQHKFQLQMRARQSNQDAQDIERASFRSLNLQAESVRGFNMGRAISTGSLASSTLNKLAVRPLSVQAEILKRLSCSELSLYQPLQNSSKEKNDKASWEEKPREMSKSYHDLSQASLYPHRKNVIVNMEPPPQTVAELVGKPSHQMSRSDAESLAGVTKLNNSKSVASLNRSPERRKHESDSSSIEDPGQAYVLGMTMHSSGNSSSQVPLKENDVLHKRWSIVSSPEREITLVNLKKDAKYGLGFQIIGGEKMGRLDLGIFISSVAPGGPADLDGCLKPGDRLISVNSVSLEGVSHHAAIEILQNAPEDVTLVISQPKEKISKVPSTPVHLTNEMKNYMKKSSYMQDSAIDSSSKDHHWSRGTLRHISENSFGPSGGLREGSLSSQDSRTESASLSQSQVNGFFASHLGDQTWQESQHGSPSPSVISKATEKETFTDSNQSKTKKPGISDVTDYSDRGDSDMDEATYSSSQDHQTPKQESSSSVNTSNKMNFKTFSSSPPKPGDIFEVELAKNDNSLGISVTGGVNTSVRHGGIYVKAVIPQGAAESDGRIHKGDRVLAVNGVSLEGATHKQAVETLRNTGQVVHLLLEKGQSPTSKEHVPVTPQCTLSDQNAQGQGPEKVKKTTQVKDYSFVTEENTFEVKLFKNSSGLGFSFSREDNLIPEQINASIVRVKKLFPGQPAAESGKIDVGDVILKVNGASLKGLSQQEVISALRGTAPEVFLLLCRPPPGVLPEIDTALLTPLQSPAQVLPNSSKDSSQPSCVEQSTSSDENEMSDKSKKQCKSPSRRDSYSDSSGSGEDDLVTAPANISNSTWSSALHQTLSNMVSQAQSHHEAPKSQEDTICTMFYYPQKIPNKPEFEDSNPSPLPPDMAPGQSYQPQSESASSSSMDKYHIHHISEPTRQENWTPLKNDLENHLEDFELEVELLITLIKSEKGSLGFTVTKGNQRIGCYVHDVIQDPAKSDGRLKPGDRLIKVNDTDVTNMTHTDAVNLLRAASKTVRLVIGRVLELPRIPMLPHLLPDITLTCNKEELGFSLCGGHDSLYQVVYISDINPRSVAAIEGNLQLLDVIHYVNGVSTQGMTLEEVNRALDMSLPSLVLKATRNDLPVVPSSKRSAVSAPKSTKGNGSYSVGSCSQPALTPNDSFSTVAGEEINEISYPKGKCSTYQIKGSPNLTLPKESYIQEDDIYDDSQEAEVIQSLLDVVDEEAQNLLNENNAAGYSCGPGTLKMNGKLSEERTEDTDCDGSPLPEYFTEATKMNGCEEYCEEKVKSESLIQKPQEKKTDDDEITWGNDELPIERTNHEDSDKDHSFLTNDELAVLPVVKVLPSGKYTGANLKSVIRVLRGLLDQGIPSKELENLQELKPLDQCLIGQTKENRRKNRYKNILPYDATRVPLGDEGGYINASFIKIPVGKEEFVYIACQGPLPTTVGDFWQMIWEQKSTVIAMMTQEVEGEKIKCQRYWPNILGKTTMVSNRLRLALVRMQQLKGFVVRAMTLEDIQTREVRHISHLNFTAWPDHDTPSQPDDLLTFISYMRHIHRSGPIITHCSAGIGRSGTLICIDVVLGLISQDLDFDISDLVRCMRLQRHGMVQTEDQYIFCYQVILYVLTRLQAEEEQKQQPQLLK

Row | SMILES | AC50
1 | O=C(N[C@H]1CN2CCC1CC2)c1ccc2c(c1)OCCO2 | inconclusive: 25 µM
2 | CC(C)COC(=O)c1ccccc1C(=O)OCC(C)C | inconclusive: 25 µM
3 | OCCCBr | active: 25 µM
4 | O=C(O)C(F)(F)C(F)(F)C(F)(F)C(F)(F)C(F)(F)F | inconclusive: 0.0521 µM
5 | CCCN(CCC)c1c([N+](=O)[O-])cc(S(N)(=O)=O)cc1[N+](=O)[O-] | inconclusive: 0.47 µM
6 | NC(=O)O | inconclusive: 25 µM
7 | Oc1ccc2ccc3cccc4ccc1c2c34 | active: 1.22 µM
8 | CCNS(=O)(=O)C(F)(F)C(F)(F)C(F)(F)C(F)(F)C(F)(F)C(F)(F)C(F)(F)C(F)(F)F | inconclusive: 0.175 µM

A portion from further up:
Row | SMILES | AC50
5 | CCCN(CCC)c1c([N+](=O)[O-])cc(S(N)(=O)=O)cc1[N+](=O)[O-] | inconclusive: 0.47 µM
6 | NC(=O)O | inconclusive: 25 µM

Biological target: Tyrosine-protein phosphatase non-receptor type 13 (Homo sapiens) (UniProt Q12923)
Assay: NVS_ENZ_hPTPN13: NovaScreen (NVS) Enzymatic Assay for human Protein Tyrosine Phosphatase Non-receptor Type 13 (PTPN13) (AID 2283205)
Summary of the method: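 Screened first at a single 25 uM in duplicate; compounds passing the threshold (e.g. 30% inhibition) were rerun in concentration series, top 50 uM. Recombinant enzyme, fluorescent substrate, mobility-shift separation, 0.5 h read. Data fitted as inhibition relative to DMSO.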

Row | SMILES | AC50 | outcome
9 | C[C@]12CCC(=O)C=C1CC[C@@H]1[C@@H]2CC[C@@]2(C)[C@H]1CC[C@]2(C)O | inconclusive: 22.9 µM | –
10 | CNC(=S)S | inconclusive: 0.218 µM | –
11 | C#CCOS(=O)OC1CCCCC1Oc1ccc(C(C)(C)C)cc1 (centres undefined) | inconclusive: 0.929 µM | –
12 | CC(=O)[O][Hg][c]1ccccc1 | active: 5.38 µM | –
13 | Oc1ccc(Cl)cc1Cc1ccccc1 | inconclusive: 0.088 µM | –
14 | CC1=C2C[C@H]3[C@@H](CC=C4C[C@@H](O)CC[C@@]43C)[C@@H]2CC[C@]12O[C@@H]1C[C@H](C)CN[C@H]1[C@H]2C | active: 6.4 µM | –
15 | CC(C)(c1ccccc1)c1ccc(O)c(C(C)(C)c2ccccc2)c1 | – | inactive
16 | N#Cc1cccnc1 | inconclusive: 0.146 µM | –
17 | CCNS(=O)(=O)C(F)(F)C(F)(F)C(F)(F)C(F)(F)C(F)(F)C(F)(F)C(F)(F)C(F)(F)F | – | inactive
18 | O=S(=O)(O)C(F)(F)C(F)(F)C(F)(F)C(F)(F)C(F)(F)C(F)(F)F | inconclusive: 0.0666 µM | –
19 | OCCOCCO | inconclusive: 0.0863 µM | –
